# Source: patent publication US20230414699A1, “TREATMENT OF DERMATOLOGICAL CONDITIONS” (MC2 Therapeutics Ltd, priority 2020, published 2023)
# Structures can show the parent of a compound that is named as a salt. At least one compound was matched to its structure with a doubt left.
# Test system: Bovine Serum Albumin (BSA)
# Experiment: In vitro protein carbamylation assay (14C-potassium cyanate, BSA)
# Assay type: biochemical
# Details: 10 mM nucleophile, 37° C., 72 hours; neutralized by equimolar NaOH before use
# Protocol: 200 μL of a 0.5% BSA solution, 200 μL of test solution and 100 μL of a 5 μCi/mL ^14C-Potassium Cyanate solution was mixed in an Eppendorf tube (corresponding to a final concentration of 75 μM BSA, 25 μM ^14C-Potassium Cyanate, and 10 mM nucleophile). Samples run in triplicates (n=3). The Eppendorf tubes were incubated at 37° C. for 72 hours (if not otherwise stated).
# After incubation a volume of 100 μL of each sample was transferred to a new Eppendorf tube containing 100 μL of a 10% trichloroacetic acid (TCA) and kept at 4° C. overnight (for precipitation of BSA). Subsequently, the precipitated BSA was separated from the buffer by centrifugation (10000 rpm, 30 seconds). The supernatant was removed and the BSA pellet was resuspended in 200 μL of a 10% solution of cold TCA (4° C.). The pellet was recovered by centrifugation (10000 rpm, 30 seconds) and supernatant was discarded. The BSA pellet was resuspended in 100 μL purified water (MilliQ) and transferred to a scintillation vial. The Eppendorf tube (previously containing the BSA pellet) was rinsed with an additional 100 μL purified water which al was transferred to the relevant scintillation vial.
structure (smiles),measurement,value
"CC(C)C[C@@H](NC(=O)[C@@H](Cc1ccccc1)NC(=O)[C@H](N)Cc1ccccc1)C(=O)N[C@H](CCCCN)C(=O)N1CCC(N)(C(=O)O)CC1 [Difelikefalin, D-Phe-D-Phe-D-Leu-D-Lys-4-amino-piperidine-4-carboxylic acid TFA salt, reference compound]",Degree of carbamylation (% relative to HBSS control),23.2%
